Taken from: PubChem BioAssay AID1259308 (NCATS, 2017)

Test: 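Genes whose loss raises luciferase production in HEK293 cells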 (primary screen)
System: human HEK293 embryonic kidney cells stably expressing firefly luciferase (HEK-CMV-Luc2-Hygro)
Reagent: single siRNA against human genes, 0.8 pmol siRNA per well
Time to read-out: 72 h
Read-out: 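Luciferase light (ONE-Glo) measured on one replicate plate set and viability (CellTiter-Glo) on the other, scaled to a negative control siRNA, with robust z-scores and luciferase per cell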
Reading the numbers: total luciferase, z-score: higher = more reporter protein produced
Rule for the call: 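Active when the median/MAD z-score for overall luciferase is greater than 3; a gene was taken forward for validation with new siRNAs if at least two of its three siRNAs passed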
Calls: active = raised luciferase; inactive = no rise
Shown is an unselected part of about 59,000 reagents. About 1,510 of all reagents (2.6%) count as active. 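Calls use total luciferase alone and ignore viability, so some active siRNAs may act by altering cell number.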 Further read-outs or replicates are left out here.

"total luciferase, z-score",Call,gene symbol,PubChem SID
-0.0317,inactive,S1PR4 (sphingosine-1-phosphate receptor 4),SID160724184
-1.23,inactive,S1PR4 (sphingosine-1-phosphate receptor 4),SID160724186
0.0573,inactive,S1PR4 (sphingosine-1-phosphate receptor 4),SID160732088
0.479,inactive,MITF (melanocyte inducing transcription factor),SID160777264
-0.243,inactive,MITF (melanocyte inducing transcription factor),SID160777265
-0.728,inactive,MITF (melanocyte inducing transcription factor),SID160777266
2.41,inactive,MARCKSL1 (MARCKS like 1),SID160748262
1.17,inactive,MARCKSL1 (MARCKS like 1),SID160748264
-0.763,inactive,MARCKSL1 (MARCKS like 1),SID160748265
-0.375,inactive,MED20 (mediator complex subunit 20),SID160722308
-0.491,inactive,MED20 (mediator complex subunit 20),SID160722309
-0.329,inactive,MED20 (mediator complex subunit 20),SID160722310
1.33,inactive,PSKH2 (protein serine kinase H2),SID160753371
-0.881,inactive,PSKH2 (protein serine kinase H2),SID160753372
-0.558,inactive,PSKH2 (protein serine kinase H2),SID160753373
0.0439,inactive,TRMT2B (tRNA methyltransferase 2B),SID160749893
1.16,inactive,TRMT2B (tRNA methyltransferase 2B),SID160749894
0.862,inactive,TRMT2B (tRNA methyltransferase 2B),SID160749895
1.24,inactive,DBP (D-box binding PAR bZIP transcription factor),SID160752806
0.0644,inactive,DBP (D-box binding PAR bZIP transcription factor),SID160752815
-1.01,inactive,DBP (D-box binding PAR bZIP transcription factor),SID160752825
-0.893,inactive,EGFL8 (EGF like domain multiple 8),SID160731954
0.00426,inactive,EGFL8 (EGF like domain multiple 8),SID160750645
-1.68,inactive,EGFL8 (EGF like domain multiple 8),SID160750646
1.84,inactive,CIPC (CLOCK interacting pacemaker),SID160753325
-0.842,inactive,CIPC (CLOCK interacting pacemaker),SID160753326
-0.435,inactive,CIPC (CLOCK interacting pacemaker),SID160753327
0.287,inactive,HIBCH (3-hydroxyisobutyryl-CoA hydrolase),SID160730927
-1.39,inactive,HIBCH (3-hydroxyisobutyryl-CoA hydrolase),SID160737891
-0.86,inactive,HIBCH (3-hydroxyisobutyryl-CoA hydrolase),SID160737893
-1.64,inactive,STRC (stereocilin),SID160759852
3.32,active,STRC (stereocilin),SID160759853
-0.262,inactive,STRC (stereocilin),SID160759854
0.422,inactive,SH3PXD2B (SH3 and PX domains 2B),SID160763656
-0.428,inactive,SH3PXD2B (SH3 and PX domains 2B),SID160763657
0.117,inactive,SH3PXD2B (SH3 and PX domains 2B),SID160763658
0.855,inactive,VAC14 (VAC14 component of PIKFYVE complex),SID160744112
-0.163,inactive,VAC14 (VAC14 component of PIKFYVE complex),SID160744113
-0.0983,inactive,VAC14 (VAC14 component of PIKFYVE complex),SID160744114
0.0145,inactive,PTH1R (parathyroid hormone 1 receptor),SID160715327
0.17,inactive,PTH1R (parathyroid hormone 1 receptor),SID160715328
-1.8,inactive,PTH1R (parathyroid hormone 1 receptor),SID160715330
0.0204,inactive,HACE1,SID160746195
0.102,inactive,HACE1,SID160746196
-0.688,inactive,HACE1,SID160746198
-0.337,inactive,TRIM60 (tripartite motif containing 60),SID160760215
0.23,inactive,TRIM60 (tripartite motif containing 60),SID160760216
0.0329,inactive,TRIM60 (tripartite motif containing 60),SID160760217
4.35,active,LOC107985384,SID160771922
-0.849,inactive,LOC107985384,SID160771923
0.33,inactive,LOC107985384,SID160771924
0.321,inactive,TIMCCP1 (TIMCC pseudogene 1),SID160725615
1.71,inactive,TIMCCP1 (TIMCC pseudogene 1),SID160725616
0.906,inactive,TIMCCP1 (TIMCC pseudogene 1),SID160768819
1.04,inactive,RPGRIP1L (RPGRIP1 like),SID160736005
0.279,inactive,RPGRIP1L (RPGRIP1 like),SID160736006
-0.409,inactive,RPGRIP1L (RPGRIP1 like),SID160736007

Copied from the entries so far, 5 entries:
"total luciferase, z-score",Call,gene symbol,PubChem SID
0.117,inactive,SH3PXD2B (SH3 and PX domains 2B),SID160763658
0.855,inactive,VAC14 (VAC14 component of PIKFYVE complex),SID160744112
-0.163,inactive,VAC14 (VAC14 component of PIKFYVE complex),SID160744113
-0.0983,inactive,VAC14 (VAC14 component of PIKFYVE complex),SID160744114
0.0145,inactive,PTH1R (parathyroid hormone 1 receptor),SID160715327
